According to the supplement of paper PMC10849652:
Some of the results follow.

The chains behind the UniProt entries cited, without tags or fusion partners. Where a name states a change or a piece, a line headed by the entry shows the natural chain unless it says otherwise.
UniProt Q13496: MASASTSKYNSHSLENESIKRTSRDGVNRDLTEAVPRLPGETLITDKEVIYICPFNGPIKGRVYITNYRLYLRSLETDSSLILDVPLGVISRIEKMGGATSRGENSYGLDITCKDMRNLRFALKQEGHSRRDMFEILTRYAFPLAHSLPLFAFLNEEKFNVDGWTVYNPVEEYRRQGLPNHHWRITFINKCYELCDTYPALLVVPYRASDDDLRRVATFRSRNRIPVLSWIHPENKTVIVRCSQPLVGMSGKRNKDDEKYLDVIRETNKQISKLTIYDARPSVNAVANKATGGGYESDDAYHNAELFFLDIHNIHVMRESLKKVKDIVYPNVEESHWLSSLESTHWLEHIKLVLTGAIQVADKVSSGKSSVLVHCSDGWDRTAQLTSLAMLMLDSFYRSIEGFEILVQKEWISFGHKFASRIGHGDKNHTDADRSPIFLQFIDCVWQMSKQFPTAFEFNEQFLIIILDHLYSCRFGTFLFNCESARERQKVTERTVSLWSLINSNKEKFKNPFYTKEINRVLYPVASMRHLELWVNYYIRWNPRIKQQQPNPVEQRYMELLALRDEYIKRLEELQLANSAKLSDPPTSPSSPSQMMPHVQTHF
UniProt Q9HD23: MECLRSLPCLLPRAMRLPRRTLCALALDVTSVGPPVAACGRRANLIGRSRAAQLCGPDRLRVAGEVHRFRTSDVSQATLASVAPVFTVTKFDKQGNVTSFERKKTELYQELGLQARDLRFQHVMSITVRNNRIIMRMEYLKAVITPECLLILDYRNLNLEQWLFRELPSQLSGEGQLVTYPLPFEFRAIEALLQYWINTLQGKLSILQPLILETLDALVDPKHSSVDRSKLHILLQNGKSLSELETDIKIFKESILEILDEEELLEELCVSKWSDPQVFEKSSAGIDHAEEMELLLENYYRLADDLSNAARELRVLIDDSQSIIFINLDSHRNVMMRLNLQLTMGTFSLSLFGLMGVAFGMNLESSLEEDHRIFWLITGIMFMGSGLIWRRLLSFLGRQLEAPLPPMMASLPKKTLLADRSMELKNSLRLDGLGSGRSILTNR
UniProt P03891, whole entry, looked up: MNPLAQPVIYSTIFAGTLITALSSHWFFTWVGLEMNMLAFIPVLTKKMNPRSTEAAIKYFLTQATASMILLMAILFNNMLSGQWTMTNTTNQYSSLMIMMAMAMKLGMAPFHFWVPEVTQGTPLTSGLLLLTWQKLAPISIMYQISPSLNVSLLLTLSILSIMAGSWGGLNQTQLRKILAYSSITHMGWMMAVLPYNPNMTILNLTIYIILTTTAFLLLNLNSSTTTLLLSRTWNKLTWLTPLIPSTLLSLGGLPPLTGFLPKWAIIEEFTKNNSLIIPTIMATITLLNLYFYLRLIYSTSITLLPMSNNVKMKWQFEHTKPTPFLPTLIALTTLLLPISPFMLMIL
UniProt P42898: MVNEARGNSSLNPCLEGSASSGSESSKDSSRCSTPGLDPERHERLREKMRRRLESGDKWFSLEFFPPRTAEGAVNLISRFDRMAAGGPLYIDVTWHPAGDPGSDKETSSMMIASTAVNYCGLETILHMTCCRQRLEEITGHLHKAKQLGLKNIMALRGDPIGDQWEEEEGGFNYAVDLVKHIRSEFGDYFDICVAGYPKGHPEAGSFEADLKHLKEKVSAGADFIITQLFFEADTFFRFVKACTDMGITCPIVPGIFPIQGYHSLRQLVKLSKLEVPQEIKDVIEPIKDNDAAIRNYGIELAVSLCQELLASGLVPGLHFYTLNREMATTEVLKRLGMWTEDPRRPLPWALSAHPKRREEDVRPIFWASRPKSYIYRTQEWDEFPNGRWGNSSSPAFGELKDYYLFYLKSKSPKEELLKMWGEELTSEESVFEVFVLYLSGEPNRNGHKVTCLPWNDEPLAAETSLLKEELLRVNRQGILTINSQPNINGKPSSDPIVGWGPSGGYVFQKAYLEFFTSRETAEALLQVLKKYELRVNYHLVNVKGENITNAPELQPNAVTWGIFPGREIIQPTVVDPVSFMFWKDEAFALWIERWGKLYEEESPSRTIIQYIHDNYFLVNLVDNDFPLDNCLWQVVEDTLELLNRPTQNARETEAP
UniProt Q96E29: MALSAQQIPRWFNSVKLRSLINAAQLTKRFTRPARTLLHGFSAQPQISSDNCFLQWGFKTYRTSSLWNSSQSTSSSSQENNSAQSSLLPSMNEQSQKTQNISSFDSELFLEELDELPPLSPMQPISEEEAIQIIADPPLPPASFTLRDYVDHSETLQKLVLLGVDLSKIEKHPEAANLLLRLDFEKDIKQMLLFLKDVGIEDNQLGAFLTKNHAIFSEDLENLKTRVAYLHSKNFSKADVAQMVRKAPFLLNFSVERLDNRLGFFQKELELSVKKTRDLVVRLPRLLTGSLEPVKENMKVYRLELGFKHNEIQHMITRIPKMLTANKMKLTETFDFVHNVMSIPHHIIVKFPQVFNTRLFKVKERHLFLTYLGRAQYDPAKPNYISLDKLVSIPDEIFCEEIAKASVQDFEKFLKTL
UniProt Q13614, whole entry, looked up: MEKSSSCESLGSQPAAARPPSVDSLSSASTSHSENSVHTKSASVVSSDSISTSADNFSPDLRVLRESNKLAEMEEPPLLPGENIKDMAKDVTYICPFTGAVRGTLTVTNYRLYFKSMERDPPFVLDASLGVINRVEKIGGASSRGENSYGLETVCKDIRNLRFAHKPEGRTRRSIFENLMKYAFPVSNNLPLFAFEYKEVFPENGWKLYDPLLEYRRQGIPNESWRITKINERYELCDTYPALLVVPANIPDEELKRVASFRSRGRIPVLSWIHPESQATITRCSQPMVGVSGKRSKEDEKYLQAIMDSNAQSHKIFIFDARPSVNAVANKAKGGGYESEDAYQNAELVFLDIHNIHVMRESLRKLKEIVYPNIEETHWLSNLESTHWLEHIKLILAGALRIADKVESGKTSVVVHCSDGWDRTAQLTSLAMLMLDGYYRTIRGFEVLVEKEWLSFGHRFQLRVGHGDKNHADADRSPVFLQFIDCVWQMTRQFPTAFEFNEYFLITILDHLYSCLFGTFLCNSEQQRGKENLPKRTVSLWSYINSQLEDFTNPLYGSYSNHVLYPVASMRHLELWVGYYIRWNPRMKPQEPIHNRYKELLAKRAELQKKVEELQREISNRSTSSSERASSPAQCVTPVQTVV
UniProt Q9Y6C9: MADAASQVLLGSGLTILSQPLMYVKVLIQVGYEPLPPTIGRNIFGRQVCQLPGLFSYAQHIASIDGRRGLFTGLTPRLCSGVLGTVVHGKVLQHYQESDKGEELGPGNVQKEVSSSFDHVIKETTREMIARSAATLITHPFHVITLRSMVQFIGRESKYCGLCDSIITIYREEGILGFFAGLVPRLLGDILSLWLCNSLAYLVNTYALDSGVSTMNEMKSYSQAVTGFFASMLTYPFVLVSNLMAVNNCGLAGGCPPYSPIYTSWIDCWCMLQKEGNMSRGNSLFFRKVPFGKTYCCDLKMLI
UniProt Q6P444: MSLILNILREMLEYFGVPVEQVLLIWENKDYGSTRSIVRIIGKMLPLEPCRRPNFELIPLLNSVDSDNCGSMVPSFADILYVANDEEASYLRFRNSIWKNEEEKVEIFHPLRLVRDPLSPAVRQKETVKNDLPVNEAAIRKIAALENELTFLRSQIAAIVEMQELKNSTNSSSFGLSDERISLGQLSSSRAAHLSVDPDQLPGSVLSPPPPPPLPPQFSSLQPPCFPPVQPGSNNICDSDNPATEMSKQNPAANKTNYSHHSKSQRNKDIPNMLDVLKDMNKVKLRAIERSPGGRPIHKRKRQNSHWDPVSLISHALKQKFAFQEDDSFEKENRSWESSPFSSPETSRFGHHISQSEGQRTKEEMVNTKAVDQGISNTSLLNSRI

How the values were obtained:
Assay in all cases: log2 fold change, soluble protein after heating vs DMSO (PISA); higher = thermal stabilisation; K562 lysate, 10 uM; active = over 0.2 and 3.5 SD of the protein, either way, in both replicates (recomputed)
[1] = compound: C#Cc1cccc(Nc2ncnc3cc(OCCOC)c(OCCOC)cc23)c1 [erlotinib]
Summary of the method: (§1)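 K562 pellets were dounce-homogenised in PBS pH 7.4 containing 1 mM MgCl2, and the crude extract, at 1 mg/mL protein, was exposed to 10 μM compound for 30 min. Aliquots were heated for 3 min across 48°C-58°C, pooled, brought to 0.5% NP-40 at 4°C and spun at 21,000xg for 90 min, with the supernatant taken as soluble protein. TMTpro 16plex LC-MS/MS with equalised channel sums quantified that protein. Values are log-two fold changes in thermal stability relative to solvent controls, taken from duplicates.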

[2] = compound: C/C(=N\NC(=O)C1=CC(=CC=C1)S(=O)(=O)N2CCOCC2)/C3=C(C=CC(=C3)Cl)O
Summary of the method: as §1

[3] = compound: C1=CC(=CC=C1C2=NC3=C(N2)C=C(C=C3)C(=O)N)OC4=CC=C(C=C4)Cl
Summary of the method: as §1

[4] = compound: C1=CC2=C(C=CC(=C2)/C=C\3/C(=O)NC(=NCC4=CC=CS4)S3)N=C1
Summary of the method: as §1

[5] = compound: C1=CC2=NC=CN=C2C=C1/C=C/3\C(=O)NC(=O)S3
Summary of the method: as §1

[6] = compound: C1=CC=C(C=C1)C2=NC(=C(N2)C3=CC=NC=C3)C4=CC(=C(C=C4)Cl)O
Summary of the method: as §1

[7] = compound: C1=CC=C2C(=C1)C3=NNC4=CC=CC(=C43)C2=O
Summary of the method: as §1

[8] = compound: C1CCN(C1)C(=O)NC2=CC=CC(=C2)NC3=NC=C(C(=N3)NCCC4=CN=CN4)Br
Summary of the method: as §1

[9] = compound: C1CN(CCC1(CC2=CC=C(C=C2)Cl)N)C3=NC=NC4=C3C=CN4
Summary of the method: as §1

[10] = compound: C1COCCN1CCN2C3=CC=CC=C3N=C2NC(=O)C4=CC(=CC=C4)[N+](=O)[O-] [IRAK-1-4 Inhibitor I]
Summary of the method: as §1

[11] = compound: C=CC(=O)N1CCC[C@@H](n2nc(-c3ccc(Oc4ccccc4)cc3)c3c(N)ncnc32)C1 [ibrutinib]
Summary of the method: as §1

[12] = compound: CC(=O)c1cnc2ccc(-c3cc(Cl)c(O)c(Cl)c3)nc2c1N[C@H]1CC[C@H](CN(C)C)CC1
Summary of the method: as §1

[13] = compound: CC(C)(C)Cn1c(N)nc2ccc(-c3[nH]c(C(C)(C)C)nc3-c3ccc(F)cc3)nc21 [ralimetinib]
Summary of the method: as §1

[14] = compound: CC(C)(O)CC(=O)NCCn1ccc2ncnc(Nc3ccc(Oc4cccc(C(F)(F)F)c4)c(Cl)c3)c21
Summary of the method: as §1

[15] = compound: CC(C)C1=C2N=C(C=C(N2N=C1)NCC3=CC=CC=C3)NCCCCCCN
Summary of the method: as §1

[16] = compound: CC1=C(C(CC(=O)N1)C2=CC=C(C=C2)C(F)(F)F)C(=O)NC3=C(C=C4C(=C3)C=NN4)F
Summary of the method: as §1

[17] = compound: CC1=C(C2=C(C=C1)C(=O)C3=CC=CC=C3N2CCCN)C
Summary of the method: as §1

[18] = compound: CC1=C(C=C(C=C1)NC(=O)C2=CC(=CC=C2)C(C)(C)C#N)NC3=CC4=C(C=C3)N=CN(C4=O)C
Summary of the method: as §1

[19] = compound: CC1=C(C=C(C=C1)NC(=O)C2=CC(=CC=C2)N(C)C)NC(=O)C3=CC=C(C=C3)O
Summary of the method: as §1

[20] = compound: CC1=CC=C(C=C1)SC2=C3C=C(SC3=CN=C2)C(=O)N
Summary of the method: as §1

Measured: log2 fold change

MRPL49 (UniProt Q13405)
inactive: [1] -0.002 | [2] 0.091 | [3] -0.001 | [4] 0.036 | [5] 0.054 | [6] 0.009 | [7] -0.023 | [8] -0.037 | [9] 0.014 | [10] -0.007 | [11] 0.019 | [12] -0.062 | [13] -0.028 | [14] -0.017 | [15] -0.003 | [16] -0.151 | [17] 0.004 | [18] 0.026 | [19] -0.03 | [20] 0.024

MRPL57 (UniProt Q9BQC6)
inactive: [1] -0.059 | [2] 0.065 | [3] -0.016 | [4] -0.126 | [5] -0.096 | [6] -0.047 | [7] 0.04 | [8] 0.05 | [9] -0.016 | [10] -0.054 | [11] 0.002 | [12] -0.092 | [13] 0.043 | [14] 0.047 | [15] -0.055 | [16] -0.056 | [17] -0.138 | [18] -0.091 | [19] -0.014 | [20] 0.016

MTM1 (UniProt Q13496)
inactive: [1] -0.013 | [2] -0.01 | [3] 0.04 | [4] -0.022 | [5] -0.031 | [6] 0 | [7] 0.036 | [8] -0.022 | [9] -0.001 | [10] 0.011 | [11] 0.054 | [12] -0.002 | [13] 0.017 | [14] -0.015 | [15] -0.025 | [16] 0.022 | [17] 0.03 | [18] 0.002 | [19] -0.017 | [20] 0.008

MRPL37 (UniProt Q9BZE1)
inactive: [1] 0 | [2] 0.002 | [3] -0.002 | [4] 0.046 | [5] 0.03 | [6] -0.014 | [7] 0.004 | [8] 0 | [9] -0.012 | [10] 0.036 | [11] 0.062 | [12] -0.027 | [13] -0.014 | [14] -0.003 | [15] 0.026 | [16] -0.002 | [17] -0.011 | [18] 0.068 | [19] 0.034 | [20] 0.018

MRS2 (UniProt Q9HD23)
inactive: [1] -0.034 | [2] -0.006 | [3] 0.011 | [4] 0.136 | [5] -0.036 | [6] -0.017 | [7] -0.008 | [8] 0.007 | [9] -0.016 | [10] -0.016 | [11] 0.008 | [12] 0.008 | [13] 0.045 | [14] -0.009 | [15] -0.042 | [16] -0.028 | [17] 0.011 | [18] -0.005 | [19] 0.02 | [20] -0.006

MT-ND2 (UniProt P03891)
inactive: [1] -0.025 | [2] 0.075 | [3] -0.154 | [4] -0.04 | [5] 0.02 | [6] -0.006 | [7] -0.035 | [8] 0.002 | [9] 0.02 | [10] -0.028 | [11] -0.014 | [12] 0.061 | [13] 0.035 | [14] -0.034 | [15] 0.026 | [16] -0.004 | [17] 0 | [18] -0.106 | [19] -0.078 | [20] 0.151

MRPL46 (UniProt Q9H2W6)
inactive: [1] -0.027 | [2] -0.01 | [3] -0.039 | [4] -0.124 | [5] -0.069 | [6] 0.023 | [7] 0.089 | [8] -0.009 | [9] -0.064 | [10] 0.035 | [11] -0.101 | [12] 0.018 | [13] 0.048 | [14] 0.026 | [15] -0.064 | [16] -0.002 | [17] 0.005 | [18] -0.002 | [19] 0.026 | [20] 0.021

MRTO4 (UniProt Q9UKD2)
inactive: [1] -0.019 | [2] -0.001 | [3] -0.007 | [4] -0.003 | [5] -0.009 | [6] 0.001 | [7] 0.019 | [8] -0.02 | [9] -0.01 | [10] -0.033 | [11] 0.023 | [12] -0.014 | [13] 0.012 | [14] 0.001 | [15] 0.015 | [16] -0.001 | [17] -0.015 | [18] -0.037 | [19] 0.016 | [20] 0.016

2 consecutive entries from above, for reference:
MRPL46 (UniProt Q9H2W6)
inactive: [1] -0.027 | [2] -0.01 | [3] -0.039 | [4] -0.124 | [5] -0.069 | [6] 0.023 | [7] 0.089 | [8] -0.009 | [9] -0.064 | [10] 0.035 | [11] -0.101 | [12] 0.018 | [13] 0.048 | [14] 0.026 | [15] -0.064 | [16] -0.002 | [17] 0.005 | [18] -0.002 | [19] 0.026 | [20] 0.021

MRTO4 (UniProt Q9UKD2)
inactive: [1] -0.019 | [2] -0.001 | [3] -0.007 | [4] -0.003 | [5] -0.009 | [6] 0.001 | [7] 0.019 | [8] -0.02 | [9] -0.01 | [10] -0.033 | [11] 0.023 | [12] -0.014 | [13] 0.012 | [14] 0.001 | [15] 0.015 | [16] -0.001 | [17] -0.015 | [18] -0.037 | [19] 0.016 | [20] 0.016

(continued)

MRPL4 (UniProt Q9BYD3)
inactive: [1] 0.105 | [2] -0.218 | [3] -0.027 | [4] -0.009 | [5] 0.023 | [6] -0.022 | [7] -0.061 | [8] 0.022 | [9] 0.02 | [10] 0.014 | [11] 0.042 | [12] -0.063 | [13] 0.021 | [14] -0.029 | [15] 0.013 | [16] -0.018 | [17] -0.02 | [18] 0.006 | [19] -0.016 | [20] -0.013

MRPS18B (UniProt Q9Y676)
inactive: [1] 0.024 | [2] -0.065 | [3] -0.028 | [4] 0.034 | [5] -0.04 | [6] 0.033 | [7] 0.008 | [8] -0.005 | [9] -0.015 | [10] 0.153 | [11] 0.019 | [12] 0.057 | [13] -0.041 | [14] -0.117 | [15] 0.085 | [16] -0.047 | [17] -0.061 | [18] 0.051 | [19] 0.077 | [20] -0.031

MTHFR isoform 2 (UniProt P42898)
inactive: [1] -0.003 | [2] -0.145 | [3] -0.009 | [4] 0.069 | [5] -0.019 | [6] -0.024 | [7] 0.068 | [8] -0.012 | [9] -0.005 | [10] -0.021 | [11] -0.01 | [12] -0.005 | [13] 0.02 | [14] -0.004 | [15] 0.008 | [16] 0.015 | [17] -0.003 | [18] 0.017 | [19] 0.021 | [20] -0.006

MTERF3 (UniProt Q96E29)
inactive: [1] 0.016 | [2] 0.076 | [3] -0.007 | [4] 0.046 | [5] -0.047 | [6] 0.031 | [7] -0.048 | [8] 0.011 | [9] 0.191 | [10] -0.031 | [11] -0.003 | [12] -0.018 | [13] 0.004 | [14] -0.107 | [15] 0.094 | [16] -0.037 | [17] -0.004 | [18] -0.008 | [19] -0.046 | [20] -0.098

MRPL38 (UniProt Q96DV4)
inactive: [1] -0.05 | [2] 0.024 | [3] 0.019 | [4] 0.084 | [5] -0.01 | [6] 0.041 | [7] 0.038 | [8] 0.024 | [9] 0.074 | [10] -0.001 | [11] 0.014 | [12] 0.024 | [13] -0.031 | [14] 0.063 | [15] 0.015 | [16] -0.01 | [17] -0.064 | [18] -0.041 | [19] 0.051 | [20] -0.041

MTMR2 (UniProt Q13614)
inactive: [1] -0.003 | [2] 0.026 | [3] 0.007 | [4] -0.007 | [5] -0.024 | [6] -0.016 | [7] 0.017 | [8] -0.005 | [9] 0.019 | [10] -0.007 | [11] 0.016 | [12] 0.005 | [13] 0.011 | [14] -0.005 | [15] -0.004 | [16] 0.021 | [17] -0.03 | [18] 0.005 | [19] -0.008 | [20] -0.005

MTCH2 (UniProt Q9Y6C9)
inactive: [1] 0.004 | [2] 0.051 | [3] -0.081 | [4] -0.032 | [5] -0.06 | [6] -0.004 | [7] -0.031 | [8] -0.033 | [9] -0.011 | [10] 0.027 | [11] 0.008 | [12] -0.022 | [13] 0.022 | [14] 0.023 | [15] 0.044 | [16] -0.019 | [17] -0.011 | [18] 0.043 | [19] -0.036 | [20] 0.031

MTFR2 (UniProt Q6P444)
inactive: [1] 0.031 | [2] -0.022 | [3] -0.014 | [4] 0.01 | [5] 0.022 | [6] 0.056 | [7] -0.037 | [8] -0.006 | [9] 0.052 | [10] 0.03 | [11] 0.022 | [12] 0.1 | [13] 0.041 | [14] -0.086 | [15] 0.002 | [16] 0.013 | [17] 0.031 | [18] -0.007 | [19] 0.019 | [20] 0.109
